According to PubChem BioAssay AID488837 (National Center for Advancing Translational Sciences (NCATS), 2010):
In all, about 330,000 compounds went through this assay and about 20 (0.006%) were called active. The inconclusive results got no clear call from the source; some entries with a clear call stand among them for comparison. Calls come from the whole dose curve; as a rule, active = well fitted inhibition curve with a large enough effect; inconclusive = small, poorly fitted or top-dose-only effect, or effect the other way; inactive = flat fitted curve, though single readings scatter. Where the call is inconclusive, the potency comes from a doubtful curve fit.

Protein sequences, listed by entry. Tags and fused reporters are not part of them. Lines headed by an entry give the natural chain unless they say otherwise; changes in a name come on top.
UniProt O00167: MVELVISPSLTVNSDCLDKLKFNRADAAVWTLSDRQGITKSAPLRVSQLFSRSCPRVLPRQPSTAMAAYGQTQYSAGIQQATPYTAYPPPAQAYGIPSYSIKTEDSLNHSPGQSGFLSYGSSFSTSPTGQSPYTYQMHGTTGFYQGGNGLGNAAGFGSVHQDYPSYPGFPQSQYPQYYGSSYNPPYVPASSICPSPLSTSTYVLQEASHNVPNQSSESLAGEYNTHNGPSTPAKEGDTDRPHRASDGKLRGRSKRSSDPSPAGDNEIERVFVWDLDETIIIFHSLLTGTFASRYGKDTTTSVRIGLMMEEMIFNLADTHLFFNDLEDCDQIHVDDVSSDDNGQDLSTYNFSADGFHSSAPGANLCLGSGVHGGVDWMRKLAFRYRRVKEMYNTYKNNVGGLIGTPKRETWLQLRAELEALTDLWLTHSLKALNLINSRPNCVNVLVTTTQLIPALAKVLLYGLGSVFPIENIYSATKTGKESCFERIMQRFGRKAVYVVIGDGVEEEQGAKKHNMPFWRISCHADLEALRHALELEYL

These compounds were tested against Protein phosphatase EYA2 (Homo sapiens) (UniProt O00167) (assay: qHTS Assay for Inhibitors of the Phosphatase Activity of Eya2). Conditions: recombinant Eya2, OMFP fluorescence dephosphorylation (OMFP is methylfluorescein phosphate); activity, negative = inhibition: at 76.9 µM (top of the series) unless noted.
From the text: The Eya family of proteins are essential co-activators of the Six1 transcription factor. Six1 is a developmental gene that is abnormally re-expressed in a large percentage of breast cancers. This over-expression plays a causal role in the initiation and metastatic development of breast cancers. The Eya family of proteins was also found to contain a unique HAD phosphatase domain with protein tyrosine phosphatase activity which can potentially play a role in Six1-mediated breast tumorigenesis. […] We have developed and optimized a 1536 well fluorescence-based HTS assay targeting the phosphatase activity of Eya2. Inhibitors found against Eya2 could serve as potential therapeutic tools to inhibit Six1-mediated breast tumorigenesis and to increase the efficiency of radiation and certain chemo therapy. These inhibitors could also be used as chemical probes to study the function of Eya2's phosphatase activity and its role in Six1-mediated breast tumorigenesis.
The Eya2 enzyme was kindly provided by the laboratory of Dr. Rui Zhao. The 3-O-methyl-fluorescein phosphate (OMFP) substrate and all buffer reagents were purchased from Sigma Aldrich. qHTS Assay Setup: 1. Buffer- 50 mM HEPES pH 7.5, 50 mM NaCl, 5 uM MgCl2, 0.05% BSA, 1 mM DTT. 2. OMFP Stock- 10 mM solution prepared in 100% DMSO and stored in single use aliquots at -20C. Assay Procedure- 1. Dispense 1.5 ul per well of Eya2 at 0.2 uM in black medium binding 1536 well Greiner plate 2. Transfer 23 nl of compound and control compound (EGTA) to plate 3. Incubate at ambient for 10 minutes 4. Dispense 1.5 ul per well of OMFP at 50 uM 5. Incubate at ambient for 10 minutes 6. Read on ViewLux using Excitation = 485 nm, Emission = 525 nm
% is set by controls: 0 for no effect and ±100 for the full control effect; potency is the fitted concentration of half-maximal effect.

SMILES	Potency	activity, negative = inhibition
O=C(CSc1c2c(nc3cc(Cl)ccc13)CCCC2)NCc1ccco1	inconclusive: 15.8 µM [inhibitor, partial curve]	–
CCN(CCCNC(=O)c1cc2cc3ccc(OC)cc3nc2s1)c1ccccc1	–	inactive: 0.705%
O=C(CCn1c(=O)c2sccc2n(Cc2cc(=O)n3ccccc3n2)c1=O)NCc1ccco1	–	inactive: 3.98%
CCOc1ccc(CN2CCCC(CO)(Cc3ccccc3F)C2)cc1 (configuration not stated)	inconclusive: 20 µM [inhibitor, single point]	–
CCCOc1ccc(CN2CCOCC2)cc1OC	inconclusive: 20 µM [inhibitor, single point]	–
Cc1cccc(CC(=O)NCCN2CCCCC2)c1	–	inactive: -5%
CCn1cc(CCCC(=O)NCc2cccnc2)c2ccccc21	inconclusive: 22.4 µM [inhibitor, single point]	–
CCN(C(=O)COC(=O)CC(C)c1ccccc1)c1c(N)n(Cc2ccccc2)c(=O)[nH]c1=O (configuration not stated)	inconclusive: 100 µM [inhibitor, partial curve]	–
Cc1ccc2c(CC(=O)N3CCN(c4ccccc4)CC3)coc2c1	inconclusive: 447 µM [inhibitor, single point]	–
O=C(COc1ccc(C(=S)N2CCOCC2)cc1Cl)Nc1ccccc1Cl	inconclusive: 224 µM [inhibitor, single point]	–
Cc1c(Cc2ccccc2)c(=O)oc2cc(OCC(=O)N3CCC(C(N)=O)CC3)ccc12	inconclusive: 89.1 µM [inhibitor, single point]	–
COCCN(C(=O)CSc1nc2ccc(C)cc2[nH]1)c1c(N)n(Cc2ccccc2)c(=O)[nH]c1=O	–	inactive: 8.09%
Nc1nnc(CC(=O)N/N=C/c2ccccc2OCc2ccc(F)cc2)s1	inconclusive: 63.1 µM [inhibitor, partial curve, poor fit]	–
CC(=O)c1ccc(NC(=S)NCCCN2CCOCC2)cc1	inconclusive: 100 µM [inhibitor, single point]	–
CCOC(=O)CSc1nc(C)c(C(C)=O)cc1C(N)=O	inconclusive: 100 µM [inhibitor, single point]	–
CN(C)CC1CCCCC1OC(=O)/C=C/c1ccc(Cl)cc1Cl (configuration not stated)	inconclusive: 28.2 µM [inhibitor, single point]	–
Oc1ccc(Nc2nc(-c3ccccc3)nc3ccccc23)cc1	–	inactive: 16.4%
O=C(CCNC(=O)c1ccco1)NC(Cc1c[nH]c2ccccc12)C(=O)O (configuration not stated)	inconclusive: 89.1 µM [inhibitor, single point]	–
CN1CCN(Cc2nc3c(c(=O)n(C)c(=O)n3C)n2CCCc2ccccc2)CC1	inconclusive: 100 µM [inhibitor, single point]	–
O=C(O)C1=NOC(CNc2ncc(C(F)(F)F)cc2Cl)C1 (configuration not stated)	inconclusive: 28.2 µM [inhibitor, partial curve, poor fit]	–
COc1cc2c(cc1OC)CN(C(=O)c1sccc1C)CC2	–	inactive: 5.35%
CCOC(=O)COc1ccc(/C=C2/C(=O)NN(c3ccc(F)cc3)C2=O)cc1OC	–	inactive: 7.64%
O=C(COC(=O)CC1CCCC1)Nc1cccc(F)c1	–	inactive: -4.81%

SMILES	Potency	activity, negative = inhibition
O=C(O)c1cc(O)c2c(c1)[C@@H]([C@H]1c3cc(C(=O)O)cc(O)c3C(=O)c3c(O[C@@H]4O[C@H](CO)[C@@H](O)[C@H](O)[C@H]4O)cccc31)c1cccc(OC3O[C@H](CO)[C@@H](O)[C@H](O)[C@H]3O)c1C2=O (some centres not stated)	–	inactive: -32.9%
Cn1c(SCc2ccccc2)nnc1-c1ccc2nonc2c1	inconclusive: 112 µM [inhibitor, single point]	–
Cn1c2ccccc2c2nnc(SCCN3CCOCC3)nc21	inconclusive: 63.1 µM [inhibitor, partial curve, poor fit]	–
O=C(O)C1CCN(c2c([N+](=O)[O-])cc(C(F)(F)F)cc2[N+](=O)[O-])CC1	inconclusive: 20 µM [inhibitor, single point]	–
COc1ccc(C)c2sc(N(CCCN(C)C)C(=O)c3ccc(S(=O)(=O)N(C)C)cc3)nc12	inconclusive: 1410 µM [inhibitor, single point]	–
COc1ccc(N(C)C(=O)c2oc(=O)c3ccccc3c2-c2ccccc2)c(OC)c1	inconclusive: 89.1 µM [inhibitor, single point]	–
O=C(COc1ccc(Cl)cc1)N(Cc1cccs1)C1CCS(=O)(=O)C1 (configuration not stated)	inconclusive: 200 µM [inhibitor, partial curve]	–
CCCC(C)C(=O)Nc1ccc(Cl)cn1 (configuration not stated)	–	inactive: 11.8%
COc1ccc2[nH]cc(C(=O)CN3CCCC(C)(C)C3)c2c1	inconclusive: 89.1 µM [inhibitor, single point]	–
COc1ccc(N(CC(=O)N/N=C/c2ccc(F)cc2)S(=O)(=O)c2ccccc2)cc1	inconclusive: 89.1 µM [inhibitor, single point]	–
Cc1ccccc1CC1(CO)CCCN(Cc2c(C)nn(C)c2Cl)C1 (configuration not stated)	inconclusive: 224 µM [inhibitor, partial curve, poor fit]	–
Cc1ccc(C(=O)Nc2ccccc2[N+](=O)[O-])cc1S(=O)(=O)N1CCOCC1	–	inactive: 0.943%
CCOC(=O)NC1(Nc2cccc(Cl)c2)Oc2ccccc2O1	–	inactive: -35.9%
COc1ccc(Cn2c(C)nc3ccc([N+](=O)[O-])cc3c2=O)cc1	–	inactive: -3.86%
N#Cc1c(N)n(CCc2ccc(F)cc2)c2nc3ccccc3nc12	–	inactive: 0.325%
Cc1sc(NC(=O)c2ccco2)c(CN2CCN(c3ccccn3)CC2)c1C	inconclusive: 56.2 µM [inhibitor, single point]	–
Cc1cc(=O)[nH]c(N/N=C/c2c(O)n(-c3ccccc3)c(=O)c3ccccc23)n1	–	inactive: 8.07%
CCOc1ccc(C2NC(=S)NC3=C2CCc2ccccc23)cc1 (configuration not stated)	inconclusive: 251 µM [inhibitor, partial curve]	–
Cc1c(NC(=O)CNCc2ccc3c(c2)OCO3)c(=O)n(-c2ccccc2)n1C	inconclusive: 89.1 µM [inhibitor, single point]	–
Cc1ccc(OCC(=O)NCCNC(=O)c2cnccn2)cc1	–	inactive: -19.2%
CC(C)(C)c1ccc(S(=O)(=O)N2CCN(c3ccccn3)CC2)cc1	inconclusive: 100 µM [inhibitor, single point]	–
O=C(/C=C/c1ccco1)N(Cc1cccc(Cl)c1)C1CCS(=O)(=O)C1 (configuration not stated)	inconclusive: 22.4 µM [inhibitor, single point]	–
CC(=O)c1c(C)c(C)c2n1CCn1c(C)ccc1-2	inconclusive: 112 µM [inhibitor, single point]	–

An excerpt of these results, bar-delimited.
SMILES | Potency | activity, negative = inhibition
COc1ccc(N(CC(=O)N/N=C/c2ccc(F)cc2)S(=O)(=O)c2ccccc2)cc1 | inconclusive: 89.1 µM [inhibitor, single point] | –
Cc1ccccc1CC1(CO)CCCN(Cc2c(C)nn(C)c2Cl)C1 (configuration not stated) | inconclusive: 224 µM [inhibitor, partial curve, poor fit] | –
Cc1ccc(C(=O)Nc2ccccc2[N+](=O)[O-])cc1S(=O)(=O)N1CCOCC1 | – | inactive: 0.943%

Continued:

SMILES	Potency	activity, negative = inhibition
O=C(CNC(=O)N1CC(=O)Nc2ccccc21)Nc1ccc(F)c(Cl)c1	inconclusive: 63.1 µM [inhibitor, single point]	–
COc1cc(CCC(=O)Nc2nccs2)cc(OC)c1OC	inconclusive: 22.4 µM [inhibitor, partial curve]	–
CN1CCN(c2ccc(CNC(=O)c3ccco3)cc2)CC1	inconclusive: 89.1 µM [inhibitor, single point]	–
O=C(Nc1ccc(-c2ccc([N+](=O)[O-])cc2)cc1)c1ccccc1F	inconclusive: 89.1 µM [inhibitor, single point]	–
Cc1ccc(S(=O)(=O)C2(C(=O)N3CCN(c4ccccc4F)CC3)CC2)cc1	inconclusive: 251 µM [inhibitor, single point]	–
CCc1nn(CC(=O)NCCCN(C)C2CCCCC2)c(=O)c2cc3occc3n12	inconclusive: 17800 µM [inhibitor, single point]	–
CCOc1cc(/C=N/Nc2ncc(C)c(=O)[nH]2)ccc1O	inconclusive: 89.1 µM [inhibitor, single point]	–
CN(NC1OC(=O)c2ccccc21)c1ccc(C(F)(F)F)cc1[N+](=O)[O-] (configuration not stated)	inconclusive: 89.1 µM [inhibitor, single point]	–
Cc1nc2sccn2c(=O)c1S(=O)(=O)Nc1cccc(Cl)c1C	inconclusive: 2000 µM [inhibitor, single point]	–
O=C(/C=C/c1ccco1)NC1CCCC1	inconclusive: 20 µM [inhibitor, single point]	–
Nc1c(S(=O)(=O)c2ccccc2)c2nc3ccccc3nc2n1Cc1ccco1	inconclusive: 15.8 µM [inhibitor, single point]	–
COc1ccc(Cc2nc3ccc(C(=O)NCCCSC)cc3o2)cc1OC	inconclusive: 224 µM [inhibitor, single point]	–
O=C(c1ccccc1)c1ccccc1C(=O)N1CCN(Cc2ccccc2F)CC1	inconclusive: 14.1 µM [inhibitor, single point]	–
CC1CC(=O)c2c(cc3c(-c4c(O)cc(O)c5c(O)c6c(cc45)OC(C)CC6=O)c(O)cc(O)c3c2O)O1 (configuration not stated)	–	inactive: -17.1%
COc1ccc(S(=O)(=O)N2CCCC(C(=O)N3CCCCCC3)C2)cc1 (configuration not stated)	inconclusive: 35.5 µM [inhibitor, partial curve, poor fit]	–
O=C(CN1CCCC1c1cccs1)Nc1cccc(S(=O)(=O)N2CCCC2)c1 (configuration not stated)	inconclusive: 89.1 µM [inhibitor, single point]	–
Cc1cnc(NC(=O)Cc2ccc(Br)cc2)s1	inconclusive: 25.1 µM [inhibitor, single point]	–
CCN(CC)c1ccc(C=C2C(=O)OC3(CCCCC3)OC2=O)cc1	–	inactive: -3.37%
Oc1ccccc1N=Cc1c(O)ccc2ccccc12	–	inconclusive: 33.8% [activator]
CC(C)C1CC(CCN)(c2ccccc2)CCO1 (configuration not stated)	inconclusive: 89.1 µM [inhibitor, single point]	–
CC(C)(C)OC(=O)N/N=C\c1ccc(OC(=O)c2ccco2)cc1	inconclusive: 224 µM [inhibitor, partial curve, poor fit]	–
